The target of assay [1] is FLAG-tagged EML4-ALK variant 1, wild-type (human). Put plainly: co-IP; anti-FLAG (M2 agarose-FLAG beads, overnight at 4°C) of FLAG-tagged fusion or mutant from transfected HEK293T cells, 48 h after transfection, serum-starved 24 h; lysis buffer 0.5% NP-40, 150 mM NaCl, 50 mM TrisCl pH 7.5; washed three times; western blotting of partners.
Assay [2] addresses FLAG-tagged CCDC6-RET, wild-type (human). The description is as above.

No constants are given. Whether binding was seen depends on the method and setting. Binding seen in cells or lysates may run through a third protein. Binding can be weak; no strength is given.

B1: SHC1 (protein, UniProt P29353 1-583)
chain: MDLLPPKPKYNPLRNESLSSLEEGASGSTPPEELPSPSASSLGPILPPLPGDDSPTTLCSFFPRMSNLRLANPAGGRPGSKGEPGRAADDGEGIVGAAMPDSGPLPLLQDMNKLSGGGGRRTRVEGGQLGGEEWTRHGSFVNKPTRGWLHPNDKVMGPGVSYLVRYMGCVEVLQSMRALDFNTRTQVTREAISLVCEAVPGAKGATRRRKPCSRPLSSILGRSNLKFAGMPITLTVSTSSLNLMAADCKQIIANHHMQSISFASGGDPDTAEYVAYVAKDPVNQRACHILECPEGLAQDVISTIGQAFELRFKQYLRNPPKLVTPHDRMAGFDGSAWDEEEEEPPDHQYYNDFPGKEPPLGGVVDMRLREGAAPGAARPTAPNAQTPSHLGATLPVGQPVGGDPEVRKQMPPPPPCPGRELFDDPSYVNVQNLDKARQAVGGAGPPNPAINGSAPRDLFDMKPFEDALRVPPPPQSVSMAEQLRGEPWFHGKLSRREAEALLQLNGDFLVRESTTTPGQYVLTGLQSGQPKHLLLVDPEGVVRTKDHRFESVSHLISYHMDNHLPIISAGSELCLQQPVERKL
B1: the binding entry in assay [1] and in assay [2] was “binds” in each case.

B2: PLCγ1 (enzyme, UniProt P19174 1-1290)
chain: MAGAASPCANGCGPGAPSDAEVLHLCRSLEVGTVMTLFYSKKSQRPERKTFQVKLETRQITWSRGADKIEGAIDIREIKEIRPGKTSRDFDRYQEDPAFRPDQSHCFVILYGMEFRLKTLSLQATSEDEVNMWIKGLTWLMEDTLQAPTPLQIERWLRKQFYSVDRNREDRISAKDLKNMLSQVNYRVPNMRFLRERLTDLEQRSGDITYGQFAQLYRSLMYSAQKTMDLPFLEASTLRAGERPELCRVSLPEFQQFLLDYQGELWAVDRLQVQEFMLSFLRDPLREIEEPYFFLDEFVTFLFSKENSVWNSQLDAVCPDTMNNPLSHYWISSSHNTYLTGDQFSSESSLEAYARCLRMGCRCIELDCWDGPDGMPVIYHGHTLTTKIKFSDVLHTIKEHAFVASEYPVILSIEDHCSIAQQRNMAQYFKKVLGDTLLTKPVEISADGLPSPNQLKRKILIKHKKLAEGSAYEEVPTSMMYSENDISNSIKNGILYLEDPVNHEWYPHYFVLTSSKIYYSEETSSDQGNEDEEEPKEVSSSTELHSNEKWFHGKLGAGRDGRHIAERLLTEYCIETGAPDGSFLVRESETFVGDYTLSFWRNGKVQHCRIHSRQDAGTPKFFLTDNLVFDSLYDLITHYQQVPLRCNEFEMRLSEPVPQTNAHESKEWYHASLTRAQAEHMLMRVPRDGAFLVRKRNEPNSYAISFRAEGKIKHCRVQQEGQTVMLGNSEFDSLVDLISYYEKHPLYRKMKLRYPINEEALEKIGTAEPDYGALYEGRNPGFYVEANPMPTFKCAVKALFDYKAQREDELTFIKSAIIQNVEKQEGGWWRGDYGGKKQLWFPSNYVEEMVNPVALEPEREHLDENSPLGDLLRGVLDVPACQIAIRPEGKNNRLFVFSISMASVAHWSLDVAADSQEELQDWVKKIREVAQTADARLTEGKIMERRKKIALELSELVVYCRPVPFDEEKIGTERACYRDMSSFPETKAEKYVNKAKGKKFLQYNRLQLSRIYPKGQRLDSSNYDPLPMWICGSQLVALNFQTPDKPMQMNQALFMTGRHCGYVLQPSTMRDEAFDPFDKSSLRGLEPCAISIEVLGARHLPKNGRGIVCPFVEIEVAGAEYDSTKQKTEFVVDNGLNPVWPAKPFHFQISNPEFAFLRFVVYEEDMFSDQNFLAQATFPVKGLKTGYRAVPLKNNYSEDLELASLLIKIDIFPAKENGDLSPFSGTSLRERGSDASGQLFHGRAREGSFESRYQQPFEDFRISQEHLADHFDSRERRAPRRTRVNGDNRL
For the molecule B2, the binding result in assay [1] and in assay [2] was “binds” throughout.

Values taken from paper PMC8127962.
